Test results from patent US6743363B2, “Method of bacteriostasis or disinfection for permselective membrane” (Toray Industries, Inc., priority 1998, dated 2004).

Tests used:
[1] = Pressure loss in membrane separation unit during seawater desalination

| SMILES | Increase in Pressure Loss ([1]; Example 3: NaHSO3 500 ppm, 60 minutes a week, running days 1 to 30, continuous Cl microbicide pre-treatment, listed as NaHSO3) | Increase in Pressure Loss ([1]; Example 3: NaHSO3 500 ppm, 60 minutes a week, running days 1 to 30, continuous Cl microbicide pre-treatment, listed as sodium bisulfite) | NaHSO3 Consumption (Example 2: sulfuric acid pH 3 to 4, 30 min/day, 35 ppm before treatment) | NaHSO3 Consumption (Example 5: sulfuric acid pH 2.5 (11, 12 & 20th day) and pH 3 (14, 27th), 30 min/day, 21 ppm before treatment) | Increase in Pressure Loss ([1]; Example 1: sulfuric acid pH 3.5 to 4, 30 min/day, running days 1 to 30) | Increase in Pressure Loss ([1]; Example 1: sulfuric acid pH 3.5 to 4, 30 min/day, running days 1 to 30, listed as sulfuric acid) | Increase in Pressure Loss ([1]; Example 2: sulfuric acid pH 3 to 4, 30 min/day, after 10 days without RO disinfection, compared with the original value) | Increase in Pressure Loss ([1]; Example 3: sulfuric acid pH 4.0, 60 min/day, running days 1 to 30, intermittent Cl microbicide pre-treatment) | Increase in Pressure Loss ([1]; Example 3: sulfuric acid pH 4.0, 60 min/day, running days 1 to 30, intermittent Cl microbicide pre-treatment, listed as sulfuric acid) | Increase in Pressure Loss ([1]; Example 4: sulfuric acid pH 3.0, 60 min/day, running days 51 to 58) | pressure loss decreased by ([1]; Example 4: sulfuric acid pH 3, 1 hour a day, after 8 days) | Increase in Pressure Loss ([1]; Example 4: sulfuric acid pH 4.0, 60 min/day, running days 79 to 90) | pressure loss decreased by ([1]; Example 4: sulfuric acid pH 4, 1 hour a day, after 12 days) |
| --- | --- | --- | --- | --- | --- | --- | --- | --- | --- | --- | --- | --- | --- |
| O=S([O-])O.[Na+] [Sodium Bisulfite, sodium bisulfite, reference compound] | 0.02 MPa | about 0.02 MPa |  |  |  |  |  |  |  |  |  |  |  |
| O=S(=O)(O)O [Sulfuric Acid, sulfuric acid] |  |  | 8 ppm | 10 ppm | No | did not change | 0.01 MPa | No | changed little | −0.015 MPa | 0.015 MPa | −0.012 MPa | 0.012 MPa |

Where two headings read alike, the source gives them in different places.
